This test concerns the target GRP78 (human (endogenous in SW480 and HCT116)) (UniProt P11021). The experiment in a line: co-IP; endogenous proteins in SW480 and HCT116 cells; the co-immunoprecipitation protocol is not described.

Protein sequences, listed by entry. Tags and fused reporters are not part of them. Residues count along the entry.
UniProt P11021, residues 19-654: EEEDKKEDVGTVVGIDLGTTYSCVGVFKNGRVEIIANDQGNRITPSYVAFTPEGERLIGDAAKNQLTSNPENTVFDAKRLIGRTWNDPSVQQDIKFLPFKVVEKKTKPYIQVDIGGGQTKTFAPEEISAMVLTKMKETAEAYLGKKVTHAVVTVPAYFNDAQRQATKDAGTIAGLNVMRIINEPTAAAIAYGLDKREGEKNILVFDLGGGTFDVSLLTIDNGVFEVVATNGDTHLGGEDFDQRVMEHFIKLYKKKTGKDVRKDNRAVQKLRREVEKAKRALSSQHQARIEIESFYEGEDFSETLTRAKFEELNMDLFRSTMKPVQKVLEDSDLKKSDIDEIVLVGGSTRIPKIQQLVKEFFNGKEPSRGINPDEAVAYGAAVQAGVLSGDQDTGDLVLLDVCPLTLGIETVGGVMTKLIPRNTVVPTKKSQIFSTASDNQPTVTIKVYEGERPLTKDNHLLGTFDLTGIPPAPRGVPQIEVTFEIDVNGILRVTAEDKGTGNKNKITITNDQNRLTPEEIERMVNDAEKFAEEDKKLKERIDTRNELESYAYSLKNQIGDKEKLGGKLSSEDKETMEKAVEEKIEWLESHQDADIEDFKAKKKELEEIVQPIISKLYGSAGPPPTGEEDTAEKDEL

No constants are given. Whether binding was seen depends on the method and setting. Binding seen in cells or lysates may run through a third protein. Some entries that bind do so weakly or less than the wild type.

B1: Transketolase (protein, UniProt P29401 1-623)
chain: MESYHKPDQQKLQALKDTANRLRISSIQATTAAGSGHPTSCCSAAEIMAVLFFHTMRYKSQDPRNPHNDRFVLSKGHAAPILYAVWAEAGFLAEAELLNLRKISSDLDGHPVPKQAFTDVATGSLGQGLGAACGMAYTGKYFDKASYRVYCLLGDGELSEGSVWEAMAFASIYKLDNLVAILDINRLGQSDPAPLQHQMDIYQKRCEAFGWHAIIVDGHSVEELCKAFGQAKHQPTAIIAKTFKGRGITGVEDKESWHGKPLPKNMAEQIIQEIYSQIQSKKKILATPPQEDAPSVDIANIRMPSLPSYKVGDKIATRKAYGQALAKLGHASDRIIALDGDTKNSTFSEIFKKEHPDRFIECYIAEQNMVSIAVGCATRNRTVPFCSTFAAFFTRAFDQIRMAAISESNINLCGSHCGVSIGEDGPSQMALEDLAMFRSVPTSTVFYPSDGVATEKAVELAANTKGICFIRTSRPENAIIYNNNEDFQVGQAKVVLKSKDDQVTVIGAGVTLHEALAAAELLKKEKINIRVLDPFTIKPLDRKLILDSARATKGRILTVEDHYYEGGIGEAVSSAVVGEPGITVTHLAVNRVPRSGKPAELLKMFGIDRDAIAQAVRGLITKA
In the case of B1, the binding result is “binds”.

Values taken from paper PMC8810869.
